PubChem BioAssay AID602196 | INSERM – 2012
The whole screen tested about 23,000 reagents; below is a part drawn at random. 455 of all reagents (2%) were called active. 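Active includes both protection and sensitisation; some change values fall well beyond the stated -50 to +50 range.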 Entries without a mark were called inactive. Further read-outs or replicates are left out here. The record does not give: the amount of reagent.

- Assay: 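Modifiers of cisplatin sensitivity in A549 cells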
- System: human A549 lung cancer cells
- Reagent: siRNA pair against human genes
- Timing: 48 h transfection before cisplatin; time from cisplatin to read-out not stated
- Conditions: cisplatin at a dose killing half of control-siRNA cells; exact dose and duration not given
- Read-out: 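Shift in cisplatin death relative to control siRNA, from -50 (all cells die) to +50 (no cells die); siRNAs harmful on their own scored 0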
- Direction: two-siRNA summed score (-2 to +2): higher = both siRNAs protect from cisplatin killing; -2 means both sensitise; mean protection from cisplatin (shift in death) and protection from cisplatin (shift in death), siRNA C: higher = protection from cisplatin killing
- Active means: 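Each siRNA scores 0 if harmful alone by LDH or WST-1, otherwise +1 if it reduces and -1 if it increases cisplatin killing; a gene is active when both siRNAs agree (sum +2 or -2)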
- Calls: active = both siRNAs shift cisplatin killing the same way; inactive = no consistent shift, or siRNA harmful alone

target gene | two-siRNA summed score (-2 to +2) | mean protection from cisplatin (shift in death) (%) | protection from cisplatin (shift in death), siRNA C (%)
EXOC4 | 0 | 24 | 26.8
CCL1 | 0 | 4.2 | 13.5
LOC90925 | 0 | 2.2 | -0.7
LOC400642 | 1 | 4.6 | -2.8
SYNE2 | 0 | -10.4 | -25.7
BAMBI | 0 | 4 | 1
LOC401389 | 1 | 9.8 | 6.7
SLC2A4RG | 0 | 2.4 | 10
LOC440802 | 0 | -7.7 | -13.6
TNNI1 | 0 | 0.4 | 10.3
TBX15 | 0 | 5.6 | 1.3
LILRA3 | 0 | 12.8 | 8.2
TMEM94 | 0 | 0 | -2
WDR13 | -1 | -9.5 | -22
LINC00839 | 0 | 2.6 | 8.4
CALCA | -1 | -17.2 | -3.6
HNRNPD | 0 | -12.1 | -27.2
BCLAF3 | 0 | 0.6 | -1.4
CCDC89 | 0 | 2.3 | -2.9
MAP7D1 | 0 | 8.6 | 12.9
OR4A15 | 0 | -9.7 | -23.2
RAB3GAP1 | 1 | 12.1 | 16.6
ADCY4 | 0 | 0.7 | 4.6
LOC339209 | 1 | 11.8 | 8.2
TESK2 | 1 | -2.3 | 8
DEFB4A | -1 | -21 | -7.2
OR4C16 | 1 | 8.2 | 1.7
SLC39A8 | 0 | 4.3 | 12.2
ERCC2 | 0 | 3 | 1.9
GTSF1L | 1 | 10.1 | 9.4
USP6NL-AS1 | 0 | 4.7 | 5.7
MEAF6 | 0 | 4.4 | -8.3
DCP1B | 1 | 13.6 | 17.9

Next part, starting with the last 4 of the part before.
target gene | two-siRNA summed score (-2 to +2) | mean protection from cisplatin (shift in death) (%) | protection from cisplatin (shift in death), siRNA C (%)
GTSF1L | 1 | 10.1 | 9.4
USP6NL-AS1 | 0 | 4.7 | 5.7
MEAF6 | 0 | 4.4 | -8.3
DCP1B | 1 | 13.6 | 17.9
LOC441371 | 1 | 11.1 | 7.7
TBPL1 | 1 | 16.2 | -9.7
HOXA4 | 0 | 7.3 | 11.5
LOC401625 | 1 | 9.5 | 9.8
ZSWIM2 | 0 | -5 | -0.5
LOC440179 | 0 | 7.5 | 12.2
PIK3R4 | 0 | -4.3 | -6.9
AIG1 | 0 | -4.2 | -6.2
LOC440850 | 0 | -2.7 | 5.5
ZNHIT3 | -1 | -10.4 | -16
PCDHB2 | 0 | 9.9 | 7.8
AXL | 2 (active) | 20.6 | 29.2
LOC388954 | -1 | 12.6 | 37.6
MROH5 | 0 | 3.2 | 14.8
MPPE1 | 1 | 16.6 | 20
ATP6V0E2-AS1 | 1 | 18.9 | 19.8
LOC391211 | 0 | -1.6 | -8.9
LOC441908 | 1 | 10.8 | 15
CTSW | 0 | -6.3 | -3.7
LOC400551 | 0 | -6 | 4.8
PLOD1 | 0 | -11.8 | -41.2
LOC439962 | 1 | 16.1 | 16.3
YPEL1 | 0 | -4.7 | -4.7
CALML6 | 0 | 19.9 | 24.4
